The target of test [1] is T1, Serine/threonine-protein phosphatase 1 regulatory subunit 10 (human (endogenous in MDA-MB-231)) (UniProt Q96QC0).
T1 sequence: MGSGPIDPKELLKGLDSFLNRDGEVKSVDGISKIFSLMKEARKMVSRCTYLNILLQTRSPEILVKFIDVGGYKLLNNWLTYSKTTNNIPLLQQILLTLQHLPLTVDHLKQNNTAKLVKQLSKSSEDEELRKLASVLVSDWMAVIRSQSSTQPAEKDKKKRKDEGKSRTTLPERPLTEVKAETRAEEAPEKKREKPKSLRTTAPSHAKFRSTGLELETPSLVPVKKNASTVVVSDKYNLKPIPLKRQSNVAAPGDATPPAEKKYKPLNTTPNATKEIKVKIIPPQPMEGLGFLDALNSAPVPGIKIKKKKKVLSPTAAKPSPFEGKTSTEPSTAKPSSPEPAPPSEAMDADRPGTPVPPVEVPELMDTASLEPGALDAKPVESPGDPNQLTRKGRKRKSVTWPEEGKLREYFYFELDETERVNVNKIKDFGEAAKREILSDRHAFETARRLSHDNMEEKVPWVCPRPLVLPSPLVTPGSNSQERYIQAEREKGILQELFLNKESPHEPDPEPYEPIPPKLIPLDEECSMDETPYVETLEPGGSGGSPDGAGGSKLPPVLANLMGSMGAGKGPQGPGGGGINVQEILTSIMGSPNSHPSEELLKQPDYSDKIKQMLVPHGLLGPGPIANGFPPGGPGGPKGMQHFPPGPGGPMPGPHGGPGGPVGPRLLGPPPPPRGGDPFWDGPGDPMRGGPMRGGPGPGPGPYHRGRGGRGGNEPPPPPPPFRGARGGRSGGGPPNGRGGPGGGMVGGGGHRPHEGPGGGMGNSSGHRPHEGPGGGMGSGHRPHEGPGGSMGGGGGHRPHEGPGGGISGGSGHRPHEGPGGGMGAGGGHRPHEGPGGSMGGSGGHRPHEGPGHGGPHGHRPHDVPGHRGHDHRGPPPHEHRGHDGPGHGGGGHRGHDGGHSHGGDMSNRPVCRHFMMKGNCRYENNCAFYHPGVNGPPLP
Briefly: proximity ligation; control and AEP KD MDA-MB-231 cells on coverslips, fixed with 4% paraformaldehyde, permeabilized with ice-cold methanol; stained with anti-AEP and anti-ATR or anti-AEP and anti-PPP1R10 (1:200).

By UniProt entry, the sequences of proteins in these tests, tags left out.
UniProt Q13535: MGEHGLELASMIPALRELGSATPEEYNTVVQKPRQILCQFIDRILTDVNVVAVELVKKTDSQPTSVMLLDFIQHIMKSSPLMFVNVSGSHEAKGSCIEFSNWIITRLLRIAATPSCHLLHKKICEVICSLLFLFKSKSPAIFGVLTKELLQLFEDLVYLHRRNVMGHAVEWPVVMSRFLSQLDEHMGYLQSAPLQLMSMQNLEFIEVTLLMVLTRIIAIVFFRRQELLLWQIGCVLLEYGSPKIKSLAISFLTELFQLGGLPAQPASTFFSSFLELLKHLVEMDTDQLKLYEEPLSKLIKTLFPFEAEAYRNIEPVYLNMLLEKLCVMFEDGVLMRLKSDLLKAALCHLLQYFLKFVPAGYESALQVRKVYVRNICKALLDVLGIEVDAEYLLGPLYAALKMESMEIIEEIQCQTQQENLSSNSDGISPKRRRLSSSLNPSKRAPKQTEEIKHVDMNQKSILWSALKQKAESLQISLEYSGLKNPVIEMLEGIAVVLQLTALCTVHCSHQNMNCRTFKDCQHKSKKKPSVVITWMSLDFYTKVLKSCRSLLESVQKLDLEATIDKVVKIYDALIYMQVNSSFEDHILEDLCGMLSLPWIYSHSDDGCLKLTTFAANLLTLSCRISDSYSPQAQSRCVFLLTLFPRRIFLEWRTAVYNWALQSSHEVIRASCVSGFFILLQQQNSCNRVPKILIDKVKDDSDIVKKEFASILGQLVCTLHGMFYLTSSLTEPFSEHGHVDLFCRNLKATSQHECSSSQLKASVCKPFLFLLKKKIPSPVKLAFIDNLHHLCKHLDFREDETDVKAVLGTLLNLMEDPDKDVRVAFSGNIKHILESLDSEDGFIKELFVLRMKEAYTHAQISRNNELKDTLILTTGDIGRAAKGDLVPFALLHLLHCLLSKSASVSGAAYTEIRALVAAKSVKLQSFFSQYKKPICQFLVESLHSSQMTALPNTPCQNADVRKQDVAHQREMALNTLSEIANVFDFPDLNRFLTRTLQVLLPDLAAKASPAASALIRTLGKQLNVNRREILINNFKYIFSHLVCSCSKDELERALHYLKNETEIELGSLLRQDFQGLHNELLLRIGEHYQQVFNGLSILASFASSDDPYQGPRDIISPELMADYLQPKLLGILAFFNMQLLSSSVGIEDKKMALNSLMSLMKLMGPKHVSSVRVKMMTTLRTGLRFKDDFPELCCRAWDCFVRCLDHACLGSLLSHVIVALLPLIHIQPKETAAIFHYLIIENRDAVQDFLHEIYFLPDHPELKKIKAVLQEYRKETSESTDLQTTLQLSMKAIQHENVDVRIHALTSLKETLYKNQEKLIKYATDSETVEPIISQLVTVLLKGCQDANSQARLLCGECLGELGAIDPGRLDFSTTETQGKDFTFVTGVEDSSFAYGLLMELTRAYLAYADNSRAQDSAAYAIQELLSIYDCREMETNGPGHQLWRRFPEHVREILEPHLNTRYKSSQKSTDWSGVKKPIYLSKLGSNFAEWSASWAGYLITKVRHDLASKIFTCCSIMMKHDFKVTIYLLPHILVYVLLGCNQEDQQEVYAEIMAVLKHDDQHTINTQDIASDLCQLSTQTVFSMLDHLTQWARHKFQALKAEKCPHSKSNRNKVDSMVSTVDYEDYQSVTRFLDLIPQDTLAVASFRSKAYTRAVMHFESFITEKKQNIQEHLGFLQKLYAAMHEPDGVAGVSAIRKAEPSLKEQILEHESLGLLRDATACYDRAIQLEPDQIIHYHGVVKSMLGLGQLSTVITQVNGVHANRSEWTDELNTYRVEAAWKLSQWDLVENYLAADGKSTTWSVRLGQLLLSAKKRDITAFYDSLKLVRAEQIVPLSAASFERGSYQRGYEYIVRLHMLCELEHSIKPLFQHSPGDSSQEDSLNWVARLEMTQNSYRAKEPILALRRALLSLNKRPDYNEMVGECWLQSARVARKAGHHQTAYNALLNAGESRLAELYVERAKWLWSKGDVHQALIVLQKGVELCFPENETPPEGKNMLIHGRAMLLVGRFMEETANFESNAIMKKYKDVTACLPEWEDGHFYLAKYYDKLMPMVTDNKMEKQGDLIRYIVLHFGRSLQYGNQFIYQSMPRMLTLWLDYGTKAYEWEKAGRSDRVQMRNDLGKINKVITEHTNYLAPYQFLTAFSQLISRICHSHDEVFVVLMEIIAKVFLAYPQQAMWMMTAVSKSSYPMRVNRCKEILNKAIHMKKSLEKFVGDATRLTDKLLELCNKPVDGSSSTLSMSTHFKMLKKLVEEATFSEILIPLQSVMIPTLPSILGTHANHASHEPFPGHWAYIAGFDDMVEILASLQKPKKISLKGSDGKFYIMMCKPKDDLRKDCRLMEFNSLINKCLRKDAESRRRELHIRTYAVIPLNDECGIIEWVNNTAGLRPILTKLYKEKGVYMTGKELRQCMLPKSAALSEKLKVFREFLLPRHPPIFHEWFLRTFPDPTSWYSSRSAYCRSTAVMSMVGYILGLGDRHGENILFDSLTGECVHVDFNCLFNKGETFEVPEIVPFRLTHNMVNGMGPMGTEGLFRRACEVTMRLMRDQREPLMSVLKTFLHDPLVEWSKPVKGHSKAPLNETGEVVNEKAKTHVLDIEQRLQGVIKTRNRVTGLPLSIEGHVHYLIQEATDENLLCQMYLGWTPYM

The target of test [2] is Serine/threonine-protein kinase ATR (human (endogenous in MDA-MB-231)) (UniProt Q13535). The description is as above.

These are yes or no findings as the source states them, for the method shown. Binding seen in cells or lysates may run through a third protein. Some binding calls cover weakened binding; strength is not graded here.

B1: Asparagine endopeptidase (enzyme, UniProt Q99538 18-323)
chain: VPIDDPEDGGKHWVVIVAGSNGWYNYRHQADACHAYQIIHRNGIPDEQIVVMMYDDIAYSEDNPTPGIVINRPNGTDVYQGVPKDYTGEDVTPQNFLAVLRGDAEAVKGIGSGKVLKSGPQDHVFIYFTDHGSTGILVFPNEDLHVKDLNETIHYMYKHKMYRKMVFYIEACESGSMMNHLPDNINVYATTAANPRESSYACYYDEKRSTYLGDWYSVNWMEDSDVEDLTKETLHKQYHLVKSHTNTSHVMQYGNKTISTMKVMQFQGMKRKASSPVPLPPVTHLDLTPSPDVPLTIMKRKLMNTN
B1: the binding entry in test [1] and in test [2] was “binds” each time.

Values taken from paper PMC11866873.
